The full ranking holds about 33,000 sequences; the median of “E-score (-0.5 to 0.5)” is about -0.016, and the highest 2% start at about 0.3. Some of the results follow.
Target: T1, Yer184c (UniProt P39961)
T1 sequence: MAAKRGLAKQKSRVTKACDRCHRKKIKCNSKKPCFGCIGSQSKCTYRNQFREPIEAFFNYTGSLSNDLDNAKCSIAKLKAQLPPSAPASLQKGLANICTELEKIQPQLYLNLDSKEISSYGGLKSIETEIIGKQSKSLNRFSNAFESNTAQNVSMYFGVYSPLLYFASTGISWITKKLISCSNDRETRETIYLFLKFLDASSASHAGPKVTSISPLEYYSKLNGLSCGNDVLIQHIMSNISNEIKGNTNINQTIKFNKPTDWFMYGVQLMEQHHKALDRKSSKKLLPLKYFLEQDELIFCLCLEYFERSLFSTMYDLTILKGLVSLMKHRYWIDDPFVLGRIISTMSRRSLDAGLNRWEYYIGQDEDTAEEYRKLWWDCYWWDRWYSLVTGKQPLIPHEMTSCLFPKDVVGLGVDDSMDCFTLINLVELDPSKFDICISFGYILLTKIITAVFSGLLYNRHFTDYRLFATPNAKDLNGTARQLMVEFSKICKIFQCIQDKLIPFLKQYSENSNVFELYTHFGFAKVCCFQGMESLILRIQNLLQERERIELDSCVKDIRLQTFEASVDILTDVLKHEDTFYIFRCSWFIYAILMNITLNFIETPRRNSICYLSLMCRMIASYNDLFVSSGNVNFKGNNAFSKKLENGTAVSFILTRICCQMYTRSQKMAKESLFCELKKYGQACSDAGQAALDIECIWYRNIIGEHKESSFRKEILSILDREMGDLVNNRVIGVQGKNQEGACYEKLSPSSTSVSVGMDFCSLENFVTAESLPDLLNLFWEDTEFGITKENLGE
Test: PBM E-score (8-mer binding enrichment) (E-score (-0.5 to 0.5)); higher = stronger / more preferred TF binding
Settings: protein concentration: 100 nM; construct: GST-full length
Procedure: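 Universal 'all 10-mer' protein binding microarrays (Agilent AMADID 015681) probed with GST-tagged S. cerevisiae TFs (full-length or DBD) made by in vitro transcription/translation (PURExpress), about 100-200 nM. Bound TF was detected with fluorescent anti-GST. Each ungapped 8-mer (which stands for itself and its reverse complement) is scored by the PBM enrichment score (E-score), a modified Wilcoxon-Mann-Whitney statistic from -0.5 to +0.5, computed with the Universal PBM Analysis Suite. Scale: above 0.35 generally sequence-specific binding.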

Sequence	PBM E-score
GGTAGATA	0.0473
ATAAACAG	0.0911
AACCCGCT	-0.0677
ACTGAATA	0.0772
AGAGACCA	-0.068
AACGACTA	0.0307
CGAGGTAA	0.11
TCCGGCAA	0.339
CTTAGGTA	-0.132
GTCCTAGA	-0.135
TGACGTCA	0.151
AAACCATG	0.0562
ATCATAGC	0.112
AGAACAGC	0.00378
GAACTACC	-0.134
GAACACGC	0.0326
CTAATCTA	0.0921
CTGCTGAC	-0.0247
CTATGGGA	-0.115
AAGTGCCC	-0.23
ACCTTTCA	-0.128
ACGCGGCG	0.113
GACGATCC	0.0002
CTCCAATC	-0.0781
CAGACACG	-0.0139

Sequence	PBM E-score
GCCCAACC	-0.188
ATATTGTC	0.21
AAGAGCCT	-0.221
AACGTGTG	-0.202
ATGCTAAG	0.0183
GTCAGATA	-0.0426
ACGCTCAC	-0.0464
CTGATTGC	0.0793
GATACAGC	0.0868
TCTTAAGA	0.0813
AAATCGGG	0.0884
ATATCTAA	0.068
CTCGGAGA	0.252
AACAGTTG	-0.31
ATTAGCGC	0.056
ACCCGCCT	-0.184
AAGGACTC	-0.19
AAACGTAG	-0.217
ACCTTTTG	-0.21
AGTGAGGG	-0.188
CGGAAACG	0.146
CTCCAGTC	-0.195
ACGGCATA	0.176
ATCCACTC	-0.00405
TCGAGCCA	-0.00737

Sequence	PBM E-score
ACCTAACT	0.125
GATGTGGA	0.0626
GAATCCGA	0.183
AGGTGAAC	-0.112
CTTCGTAC	-0.0703
GACCCCCA	-0.301
CCTCAACG	-0.153
ATCATTCC	0.159
CTACAAAC	0.00848
AATCTCGC	0.108
CTAGCCAG	-0.159
AAGCACAA	0.146
CAGCATTA	-0.138
GGCTATAC	-0.0115
AACTTTTG	0.0872
GCAATTAA	0.144
AAGGAGAG	-0.349
CAAACATA	-0.0664
ACGTGATC	0.0471
ATGTTCGG	0.214
AGACCAAA	0.149
CTATACTA	0.0798
CGCTGGGC	-0.206
ACAAATAA	0.105
CCACTCGC	-0.173

Sequence	PBM E-score
CAGTCGGG	-0.0768
TACGCACA	-0.08
GGACCTGA	-0.0219
AAAGCTAA	0.0933
ATGCAGGG	-0.225
CGATCGCA	0.0194
AGGTCCGC	-0.118
ACAAATTG	0.0238
ATATCCGG	0.374
CCTGGTTA	-0.178
TCTCAGCA	-0.116
GCTATCAC	-0.179
GTACGCGA	-0.209
TGGCCACA	-0.192
AGGATGCA	-0.0542
ATCCGTTA	0.367
AGTAATCA	0.0992
CAAAGACA	0.0916
GAACGCAC	0.0787
ACGTCCTA	-0.144
TATTCGGA	0.356
GAACCGGA	0.349
CGACCGAC	-0.00614
TGGGCGAA	-0.0741
AATCTAGT	0.192

Sequence	PBM E-score
AGGGGGAA	-0.287
ACTTCTTC	-0.0371
AAGGTCAC	-0.18
CCCCTCTA	-0.28
CCTGCTGA	0.0351
TCAGAAAA	-0.0371
GAGCAAGC	0.0714
AACTACAG	-0.0177
TACGGTGA	0.00983
GCCAGGGC	-0.215
CTCTGCCC	-0.0854
AAGGACTA	-0.231
CGCCCTCC	-0.202
AGCGGGCC	0.0352
CCGAACAA	0.322
AAGGTTGA	-0.015
CTCAGCAG	-0.157
CGTTCACA	0.0638
CACCAGGA	0.0515
CGCATTGA	0.0817
ATTCAGGG	-0.0249
CGGATGAC	0.151
CTCTGAAC	-0.187
CGTATTAC	-0.0174
GACCCTAA	-0.0197

Sequence	PBM E-score
GAGTTTAA	0.244
CGCTTGAC	-0.0949
GGCCCTGA	-0.164
TATGTTAA	0.173
CGCGACTA	0.033
AAAAGACT	-0.15
AATGTCAT	0.105
CGCTCTAA	-0.0807
GACGAGAC	-0.158
TACTTGGA	0.0973
ATACAGCA	0.0786
GTGACGGA	-0.0455
CAGCCGGG	0.127
ATCGGACG	0.0919
ACTAGCGG	-0.0521
GGTGAAGA	-0.0273
CAAGGAAA	-0.0602
TAGAGTCA	-0.372
ATGCTCCC	-0.212
GTTTTCCA	0.174
CCCACTCG	-0.165
ATTAGTTC	0.0577
ACCTTTCC	0.132
CGAGGGGC	-0.222
CGCAGGAC	-0.138

Sequence	PBM E-score
CATATATG	-0.00483
AAAAGTTG	0.109
TAGGGCCA	-0.28
TAGGCTGA	-0.075
CGCCAATC	-0.0233
ACCGTCAG	-0.104
CAAACTCA	-0.0219
CCCCGCCA	0.0177
AGTATGCG	-0.0901
CAGTTATG	-0.0637
AGGCGTCG	-0.0441
AAATAATA	0.276
AACGTGCT	-0.258
GCACCCGA	0.0984
AGACTTAT	-0.0647
AGCGGTTG	-0.00156
ACCAACGG	0.0515
CGGCAGAC	0.102
ATGGTGCC	-0.117
AGCAGGGG	-0.28
GGACCCGA	0.064
GTGACAAA	-0.0189
TAAATACA	0.137
TCGTGAAA	0.022
TGTGCTAA	0.252

Sequence	PBM E-score
GGACTTTA	0.156
AACTCTCG	-0.0335
AACCTTAG	-0.0918
GCACTAAC	-0.084
GAAAGGGA	-0.0492
AGCGGCTG	-0.00263
AGCACGAC	-0.212
AATTTTGT	0.207
AATTCAGC	-0.0404
ATCCTGGC	-0.0823
CACAGTCC	-0.225
CTGTGCTC	0.141
GAACTCAA	0.0685
CGACTTGA	-0.00564
TGACAGCA	0.0714
ACGACGTG	-0.243
CACACTAG	-0.0414
GGCTACAA	-0.0116
ACGAATGA	0.189
AATCGGAC	0.152
CCACTGTA	-0.0881
ACTGAGCG	-0.147
GGCGTGAA	-0.0177
CAGCGGCA	-0.0167
GCGTATCA	0.0138

Sequence	PBM E-score
AAGTCCAC	-0.176
ACCAGTGA	-0.131
GAATTGAA	0.176
CTAGCCTC	-0.212
TACTTACA	0.0552
TAATGAAA	0.211
AGGACATC	0.13
CAGGCGAG	-0.203
ATGGTGGG	-0.243
CGCGCAGA	0.171
GTTCAAGA	0.0788
GCCTACCC	-0.254
ATCGGAAA	0.344
GCCCTACC	-0.21
CCGCCGTC	-0.00239
ATGGAGCA	0.0234
AACTCCTC	-0.0649
GCGGCATA	0.115
ACCCAAAA	0.0213
CAAGGCAA	-0.0285
GGTACGTA	-0.179
TATATACA	0.164
ACCCGGCG	0.198
AGCAGACT	0.0244
CCATATCC	-0.166

Exported field by field: part of the list above.
ATGGAGCA
  PBM E-score: 0.0234
AACTCCTC
  PBM E-score: -0.0649
GCGGCATA
  PBM E-score: 0.115
ACCCAAAA
  PBM E-score: 0.0213

The list continues:

Sequence	PBM E-score
AGGGCGAT	-0.247
GCCTTCGC	-0.111
CGTGCGAA	0.121
ACAGGCTG	-0.272
ACGGGAAA	0.159
GACAAGGC	-0.171
AATAACTG	0.0163
GCTCGAGC	0.101
CTATTTCC	0.233
CAGACTGA	0.0471
CACACCCC	-0.283
ACATACGT	-0.133
ATAGGTCA	0.099
AGGGGGTG	-0.288
CGCCTGAA	0.115
GAATTTAC	0.152
ACAATGAC	-0.123
TATTAACA	0.239
AGAAGTGG	-0.142
CACGATGG	-0.222
AATGCGAG	0.00618
GCACCTAA	0.0422
AGTCGGTG	-0.151
AAGGTAAA	0.118
CGCGTCGC	-0.0204

Sequence	PBM E-score
ACCATTAT	-0.045
TGACATAA	0.137
AACAATCT	0.0138
ACCGCAGG	0.132
AACTTCTT	-0.0832
CATGTGAC	-0.125
AACATAGA	-0.0943
ACGCGAAT	-0.0916
GGACTAGA	0.0413
CGCCCTCA	-0.217
CGCAAGCA	-0.0264
ACATGTAT	0.0291
AGATGACC	-0.0421
CTTAACCA	-0.0614
ATGAAGGC	-0.0969
TAAACGAA	0.0902
AGGGCCGA	0.197
CGGTAGCA	-0.0782
ACGCGGCA	0.096
CAGGATGC	-0.0823
AAGCATGC	-0.085
AGCTGTGC	-0.231
GAAAAGAA	0.133
ACTGAACA	0.237
GAGGATAA	0.0354

Sequence	PBM E-score
AGGTAGCG	-0.0168
TACACATA	-0.0624
AGGGCTGA	-0.113
AGCAAGAG	-0.115
ACGCCGGC	0.423
GCATATGC	-0.157
AAGTAAAT	0.131
CTGCTTTC	0.0885
ATGGACAC	0.18
AGCATACT	-0.105
ATTTGATA	0.11
AGATCTAG	-0.193
CTCGTACC	-0.031
CCATACTA	0.079
GCCTCGAC	-0.16
ACGTAAGG	-0.229
ATAGATAT	0.161
ACAACCTG	0.0217
ATACACCA	0.101
AGTGGGAG	-0.164
AGTGTCGC	0.00903
ATTTTCCC	0.00872
GGCACACC	-0.232
CGACTAAG	-0.0168
GTATTTAA	0.0858

Sequence	PBM E-score
TCTACGAA	-0.0342
TCTGCAGA	0.163
CCCTAGAA	-0.162
CAGAACGG	0.192
ACACGTAT	-0.0527
CGTCCCGA	0.0521
CTACCGAC	0.0302
AAAACGGT	-0.133
GCCCAGCC	-0.114
ATTTTGAC	0.0934
AACCACCC	-0.173
ACTGATCC	-0.0992
GACTATAA	0.0619
CTGAAACC	0.186
AAACAAAT	0.171
GCAAAACC	-0.214
AATCACAG	-0.025
CAATTACG	0.00382
AGAATGTA	0.0283
CCCGAACA	0.0635
GGTTGCAA	-0.0127
CGAAATTC	0.168
AAGTACCT	-0.0917
ACGATCAC	-0.0656
ATGCTGGC	-0.199

Sequence	PBM E-score
ATTGGTTA	0.198
AATAGCCC	-0.225
AACTGCTT	-0.0392
CGGAAATA	0.424
ACGCCGCG	0.0694
TACGCGGA	0.163
CCATGTTC	-0.0898
AGATCCGG	0.263
AAAAGAAT	0.202
GACGCGAA	-0.0525
ACGCACGT	-0.181
ACGATAGA	-0.134
ACATAACG	0.0705
CCCCGTGC	0.0879
CCTTTATA	-0.145
TACGACAA	0.129
CGCGTACC	-0.0427
ACCACTCC	0.0166
ACAGGTAT	-0.0108

4 entries from above, as labelled records:
CTCCAATC
  PBM E-score = -0.0781
AAGGACTC
  PBM E-score = -0.19
AGGTGAAC
  PBM E-score = -0.112
ATGGAGCA
  PBM E-score = 0.0234
